Values from PubChem BioAssay AID1259254 (NCATS, 2017).
Here is a random part of about 59,000 reagents. About 1,550 of them (2.6%) count as active. 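G2 share is only a proxy for re-replication; each gene was hit by three separate siRNAs, and active genes were retested.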 A number with no mark means an inactive call. Reagents against one gene are numbered here. Further read-outs or replicates are left out here. The record does not give: the amount of reagent.

- Screen: 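Genome-wide screen for genes that prevent DNA re-replication in cancer cells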 (primary screen)
- Cells: human HCT116 colorectal cancer cells
- Knock-down reagent: single siRNA against human genes
- Duration: 3 days
- Measurement: 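Imaged Hoechst DNA stain sorts each cell into a cycle phase by DNA amount; per plate, G2 fraction set to 0% for non-targeting and 100% for GMNN siRNA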
- Reading the numbers: G2 robust z-score: higher = more G2 cells, more excess DNA replication
- Hit rule: 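An siRNA counts as active if its G2 robust z-score lies at least 5 MADs above the screen median; here such calls match roughly 38% of GMNN control or more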

For ATN1 #1, how do the results read?
G2 robust z-score: -1.27

Which result is listed for ATN1 #2?
G2 robust z-score: 0.898

Which result is listed for ATN1 #3?
G2 robust z-score: 2.13

For HSD17B11 #1, how do the results read?
G2 robust z-score: 0.137

With HSD17B11 #2, what was measured?
G2 robust z-score: 0.338

What did the screen give for HSD17B11 #3?
G2 robust z-score: -0.909

Laid out differently: results already given.
target	reagent	G2 robust z-score
ATN1	2	0.898
ATN1	3	2.13
HSD17B11	1	0.137

More reagents:
What is on record for HLA-E #1?
G2 robust z-score: 1

With HLA-E #2, what does the deposit list?
G2 robust z-score: -0.329

Which result is listed for HLA-E #3?
G2 robust z-score: -0.499

For SCPEP1 #1, what was measured?
G2 robust z-score: -0.971

Which result is listed for SCPEP1 #2?
G2 robust z-score: -0.197

What did the screen give for SCPEP1 #3?
G2 robust z-score: 1.09

What did the screen give for PTH2R #1?
G2 robust z-score: -0.983

With PTH2R #2, what was measured?
G2 robust z-score: 0.0566

For PTH2R #3, what was measured?
G2 robust z-score: -0.36

With POMGNT1 #1, how do the results read?
G2 robust z-score: 0.601

What is on record for POMGNT1 #2?
G2 robust z-score: 2.43

For POMGNT1 #3, what was measured?
G2 robust z-score: 0.404
